The other results are listed elsewhere or left out.

Chains of the proteins cited; added tags and fusions are not shown. Lines headed by an entry give the natural chain unless they say otherwise; changes in a name come on top.
UniProt Q9NPI0: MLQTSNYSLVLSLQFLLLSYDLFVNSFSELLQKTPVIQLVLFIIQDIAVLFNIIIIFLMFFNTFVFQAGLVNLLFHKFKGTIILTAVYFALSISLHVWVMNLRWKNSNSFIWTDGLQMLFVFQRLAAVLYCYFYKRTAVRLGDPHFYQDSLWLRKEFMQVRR
UniProt Q96AN5: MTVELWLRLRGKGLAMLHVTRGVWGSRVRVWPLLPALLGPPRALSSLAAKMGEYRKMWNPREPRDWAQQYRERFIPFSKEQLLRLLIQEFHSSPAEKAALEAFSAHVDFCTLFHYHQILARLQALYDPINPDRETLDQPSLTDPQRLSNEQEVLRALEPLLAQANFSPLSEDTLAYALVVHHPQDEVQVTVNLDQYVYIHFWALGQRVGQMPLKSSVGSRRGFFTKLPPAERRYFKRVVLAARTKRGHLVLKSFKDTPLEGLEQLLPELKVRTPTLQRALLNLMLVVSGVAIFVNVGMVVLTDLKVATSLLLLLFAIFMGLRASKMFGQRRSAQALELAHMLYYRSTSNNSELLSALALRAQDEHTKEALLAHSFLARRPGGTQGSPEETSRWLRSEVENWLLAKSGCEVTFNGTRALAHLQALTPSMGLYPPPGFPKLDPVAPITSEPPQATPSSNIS
UniProt Q8IUC6, whole entry, looked up: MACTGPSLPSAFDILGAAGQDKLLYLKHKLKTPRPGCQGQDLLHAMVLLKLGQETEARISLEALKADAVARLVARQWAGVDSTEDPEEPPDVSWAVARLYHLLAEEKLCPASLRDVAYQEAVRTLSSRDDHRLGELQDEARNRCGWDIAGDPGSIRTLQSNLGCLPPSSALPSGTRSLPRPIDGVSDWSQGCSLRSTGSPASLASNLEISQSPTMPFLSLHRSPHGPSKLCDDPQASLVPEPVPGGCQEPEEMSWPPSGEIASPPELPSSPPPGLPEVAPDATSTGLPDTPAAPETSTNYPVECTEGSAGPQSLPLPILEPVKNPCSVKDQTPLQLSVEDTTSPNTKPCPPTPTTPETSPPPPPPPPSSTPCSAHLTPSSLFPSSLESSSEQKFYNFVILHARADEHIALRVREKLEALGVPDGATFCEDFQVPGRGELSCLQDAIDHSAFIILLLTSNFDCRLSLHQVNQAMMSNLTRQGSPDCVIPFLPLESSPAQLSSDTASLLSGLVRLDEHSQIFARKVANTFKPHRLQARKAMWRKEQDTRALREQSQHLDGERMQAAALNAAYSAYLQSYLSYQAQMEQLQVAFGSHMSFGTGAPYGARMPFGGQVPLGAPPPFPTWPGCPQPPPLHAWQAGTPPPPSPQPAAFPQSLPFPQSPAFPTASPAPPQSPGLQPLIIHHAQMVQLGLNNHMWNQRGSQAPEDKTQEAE
UniProt Q9Y519: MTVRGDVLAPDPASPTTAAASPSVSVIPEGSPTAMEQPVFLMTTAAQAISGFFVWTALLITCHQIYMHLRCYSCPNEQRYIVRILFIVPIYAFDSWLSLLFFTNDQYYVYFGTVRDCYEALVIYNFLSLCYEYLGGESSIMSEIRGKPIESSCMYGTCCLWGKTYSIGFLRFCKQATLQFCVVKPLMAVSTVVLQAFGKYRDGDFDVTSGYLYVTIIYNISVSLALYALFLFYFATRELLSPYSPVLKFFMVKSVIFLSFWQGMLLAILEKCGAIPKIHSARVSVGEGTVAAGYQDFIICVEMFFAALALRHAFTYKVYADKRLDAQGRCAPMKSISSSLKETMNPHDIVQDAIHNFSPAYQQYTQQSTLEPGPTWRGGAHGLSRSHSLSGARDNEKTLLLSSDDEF
UniProt P37173, whole entry, looked up: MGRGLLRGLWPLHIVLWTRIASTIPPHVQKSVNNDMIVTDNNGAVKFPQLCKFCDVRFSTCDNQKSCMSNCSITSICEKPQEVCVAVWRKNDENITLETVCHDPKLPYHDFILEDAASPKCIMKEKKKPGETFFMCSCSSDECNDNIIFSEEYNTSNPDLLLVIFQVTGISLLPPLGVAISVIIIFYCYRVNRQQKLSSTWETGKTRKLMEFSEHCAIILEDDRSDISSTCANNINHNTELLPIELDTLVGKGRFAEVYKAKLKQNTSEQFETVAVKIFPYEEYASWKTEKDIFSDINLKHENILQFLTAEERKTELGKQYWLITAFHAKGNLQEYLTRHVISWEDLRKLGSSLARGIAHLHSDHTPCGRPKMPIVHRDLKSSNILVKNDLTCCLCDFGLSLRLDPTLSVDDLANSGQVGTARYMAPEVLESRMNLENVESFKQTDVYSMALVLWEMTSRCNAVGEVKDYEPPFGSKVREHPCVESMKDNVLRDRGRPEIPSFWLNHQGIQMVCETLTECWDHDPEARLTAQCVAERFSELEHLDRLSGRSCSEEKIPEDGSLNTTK
UniProt Q96B96: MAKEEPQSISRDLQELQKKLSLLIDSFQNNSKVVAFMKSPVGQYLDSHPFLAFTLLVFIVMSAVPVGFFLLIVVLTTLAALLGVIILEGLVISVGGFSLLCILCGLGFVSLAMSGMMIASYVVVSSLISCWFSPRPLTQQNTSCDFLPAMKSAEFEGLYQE
UniProt Q9H6X4: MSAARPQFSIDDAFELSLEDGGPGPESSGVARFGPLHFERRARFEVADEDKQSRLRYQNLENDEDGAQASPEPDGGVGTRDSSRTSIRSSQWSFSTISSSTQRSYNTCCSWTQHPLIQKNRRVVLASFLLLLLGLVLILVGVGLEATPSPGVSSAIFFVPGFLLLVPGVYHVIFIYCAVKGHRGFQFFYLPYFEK
UniProt P36897: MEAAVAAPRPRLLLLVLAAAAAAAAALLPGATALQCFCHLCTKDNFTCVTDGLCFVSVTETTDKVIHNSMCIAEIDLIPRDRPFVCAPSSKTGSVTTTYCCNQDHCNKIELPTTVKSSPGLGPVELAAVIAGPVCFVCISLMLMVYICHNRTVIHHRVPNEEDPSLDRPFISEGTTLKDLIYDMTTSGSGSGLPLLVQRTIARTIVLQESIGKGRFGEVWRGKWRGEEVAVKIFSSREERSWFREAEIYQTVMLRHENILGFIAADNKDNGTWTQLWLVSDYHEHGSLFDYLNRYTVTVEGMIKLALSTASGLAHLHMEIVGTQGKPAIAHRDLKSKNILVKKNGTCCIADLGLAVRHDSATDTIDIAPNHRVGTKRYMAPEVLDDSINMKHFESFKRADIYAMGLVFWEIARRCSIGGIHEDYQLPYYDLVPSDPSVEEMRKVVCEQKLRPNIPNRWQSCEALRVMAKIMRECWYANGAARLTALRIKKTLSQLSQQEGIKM
UniProt Q6P9G4: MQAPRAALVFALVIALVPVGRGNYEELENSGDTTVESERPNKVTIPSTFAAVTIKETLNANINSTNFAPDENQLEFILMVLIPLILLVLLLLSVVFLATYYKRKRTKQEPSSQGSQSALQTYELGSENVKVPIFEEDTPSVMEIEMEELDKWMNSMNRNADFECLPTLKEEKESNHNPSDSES
UniProt Q9H1K6: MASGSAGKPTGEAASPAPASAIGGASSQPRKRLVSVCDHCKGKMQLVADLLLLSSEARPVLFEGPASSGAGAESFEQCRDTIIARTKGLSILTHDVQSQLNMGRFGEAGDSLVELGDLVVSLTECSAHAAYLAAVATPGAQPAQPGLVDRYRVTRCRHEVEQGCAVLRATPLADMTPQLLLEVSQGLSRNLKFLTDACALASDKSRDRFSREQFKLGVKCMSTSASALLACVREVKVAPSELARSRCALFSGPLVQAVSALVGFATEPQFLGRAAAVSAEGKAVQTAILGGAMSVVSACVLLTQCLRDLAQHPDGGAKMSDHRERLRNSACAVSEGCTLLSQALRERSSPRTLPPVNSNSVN
UniProt Q9NVA4: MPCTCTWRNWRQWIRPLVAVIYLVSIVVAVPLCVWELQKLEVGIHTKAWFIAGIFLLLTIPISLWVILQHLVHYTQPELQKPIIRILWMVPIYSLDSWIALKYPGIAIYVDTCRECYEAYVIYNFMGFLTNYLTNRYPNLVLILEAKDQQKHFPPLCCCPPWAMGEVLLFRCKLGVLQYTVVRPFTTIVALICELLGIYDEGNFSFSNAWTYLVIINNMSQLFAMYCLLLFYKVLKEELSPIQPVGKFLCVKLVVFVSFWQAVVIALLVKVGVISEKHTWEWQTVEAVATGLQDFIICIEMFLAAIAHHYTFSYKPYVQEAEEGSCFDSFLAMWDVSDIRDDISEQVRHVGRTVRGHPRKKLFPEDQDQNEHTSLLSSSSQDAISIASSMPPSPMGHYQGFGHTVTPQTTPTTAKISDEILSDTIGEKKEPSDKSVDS
UniProt Q04726: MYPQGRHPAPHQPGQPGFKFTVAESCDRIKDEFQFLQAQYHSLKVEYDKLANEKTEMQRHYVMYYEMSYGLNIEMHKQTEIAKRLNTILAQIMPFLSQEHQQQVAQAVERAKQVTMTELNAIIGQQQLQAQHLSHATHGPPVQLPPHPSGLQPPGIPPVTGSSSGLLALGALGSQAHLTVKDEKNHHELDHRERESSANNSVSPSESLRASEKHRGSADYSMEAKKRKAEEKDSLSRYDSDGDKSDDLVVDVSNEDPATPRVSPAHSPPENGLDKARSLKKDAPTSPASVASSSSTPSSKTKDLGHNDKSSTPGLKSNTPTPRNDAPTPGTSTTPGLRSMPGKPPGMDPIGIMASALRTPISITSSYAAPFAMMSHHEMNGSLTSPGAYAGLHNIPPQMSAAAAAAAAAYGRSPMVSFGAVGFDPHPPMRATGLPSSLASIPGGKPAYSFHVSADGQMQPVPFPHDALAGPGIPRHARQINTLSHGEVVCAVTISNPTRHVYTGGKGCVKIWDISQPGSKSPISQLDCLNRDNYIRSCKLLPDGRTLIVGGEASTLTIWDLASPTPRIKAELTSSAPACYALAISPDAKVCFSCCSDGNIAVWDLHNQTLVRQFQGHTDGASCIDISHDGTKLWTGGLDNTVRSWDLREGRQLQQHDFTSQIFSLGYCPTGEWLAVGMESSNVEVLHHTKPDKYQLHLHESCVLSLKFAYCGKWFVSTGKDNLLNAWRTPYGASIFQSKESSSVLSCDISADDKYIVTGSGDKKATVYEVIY
UniProt O94876, whole entry, looked up: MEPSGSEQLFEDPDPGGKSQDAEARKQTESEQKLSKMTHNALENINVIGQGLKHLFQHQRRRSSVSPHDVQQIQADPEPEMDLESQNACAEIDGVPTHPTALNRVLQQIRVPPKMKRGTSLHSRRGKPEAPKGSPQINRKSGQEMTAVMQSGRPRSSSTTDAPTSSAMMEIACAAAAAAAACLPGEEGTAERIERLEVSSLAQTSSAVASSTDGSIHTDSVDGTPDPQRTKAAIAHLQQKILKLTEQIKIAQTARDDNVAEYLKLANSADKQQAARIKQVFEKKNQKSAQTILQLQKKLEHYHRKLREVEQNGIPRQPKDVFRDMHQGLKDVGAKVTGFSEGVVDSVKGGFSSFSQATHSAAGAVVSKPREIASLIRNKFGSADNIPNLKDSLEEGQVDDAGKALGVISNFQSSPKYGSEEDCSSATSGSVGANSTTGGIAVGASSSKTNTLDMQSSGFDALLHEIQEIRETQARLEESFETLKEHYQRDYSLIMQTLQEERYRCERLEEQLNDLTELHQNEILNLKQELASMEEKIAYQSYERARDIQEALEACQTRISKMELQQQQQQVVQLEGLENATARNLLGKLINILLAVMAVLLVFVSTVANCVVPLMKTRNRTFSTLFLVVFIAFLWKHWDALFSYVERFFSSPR
UniProt P51854: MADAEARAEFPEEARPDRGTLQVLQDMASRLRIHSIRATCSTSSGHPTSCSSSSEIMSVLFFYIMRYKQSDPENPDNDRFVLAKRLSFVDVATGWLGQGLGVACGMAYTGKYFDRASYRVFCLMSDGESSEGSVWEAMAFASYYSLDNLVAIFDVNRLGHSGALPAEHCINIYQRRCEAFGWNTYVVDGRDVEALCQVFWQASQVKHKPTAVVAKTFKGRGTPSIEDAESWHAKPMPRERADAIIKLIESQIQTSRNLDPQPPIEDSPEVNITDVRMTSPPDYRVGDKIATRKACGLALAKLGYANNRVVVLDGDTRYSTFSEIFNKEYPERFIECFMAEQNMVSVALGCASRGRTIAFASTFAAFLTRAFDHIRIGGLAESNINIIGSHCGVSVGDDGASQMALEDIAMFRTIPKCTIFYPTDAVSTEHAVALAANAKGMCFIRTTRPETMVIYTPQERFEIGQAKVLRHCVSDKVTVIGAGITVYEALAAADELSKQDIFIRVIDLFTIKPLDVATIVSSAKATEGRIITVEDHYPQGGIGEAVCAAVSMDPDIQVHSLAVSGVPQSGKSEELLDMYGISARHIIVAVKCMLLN
UniProt Q7Z6K1, whole entry, looked up: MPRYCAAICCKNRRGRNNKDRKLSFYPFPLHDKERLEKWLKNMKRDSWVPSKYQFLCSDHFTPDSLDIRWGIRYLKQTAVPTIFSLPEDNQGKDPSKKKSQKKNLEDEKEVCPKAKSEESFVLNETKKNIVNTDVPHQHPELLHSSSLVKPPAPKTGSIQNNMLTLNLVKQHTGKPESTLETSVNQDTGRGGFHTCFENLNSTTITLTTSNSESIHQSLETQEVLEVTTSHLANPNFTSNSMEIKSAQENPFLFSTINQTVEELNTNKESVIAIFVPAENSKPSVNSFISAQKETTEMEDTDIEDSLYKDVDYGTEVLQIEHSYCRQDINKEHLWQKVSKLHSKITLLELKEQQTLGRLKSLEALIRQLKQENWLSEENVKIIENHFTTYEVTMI

Compound in the experiment: Cc1sc2c(c1C)C(c1ccc(Cl)cc1)=N[C@@H](CC(=O)OC(C)(C)C)c1nnc(C)n1-2
Description: log2 fold change, soluble protein after heating vs DMSO (PISA); higher = thermal stabilisation; K562 lysate, 10 uM; active = over 0.2 and 3.5 SD of the protein, either way, in both replicates (recomputed). The procedure, abridged: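 Dounce homogenisation of K562 pellets in PBS pH 7.4 with 1 mM MgCl2 produced a crude extract, used at 1 mg/mL protein. Exposure to 10 μM compound lasted 30 min, and aliquots were then heated for 3 min across 48°C-58°C, pooled and brought to 0.5% NP-40 at 4°C. The supernatant after 21,000xg for 90 min was quantified by TMTpro 16plex LC-MS/MS with channel sums equalised. Duplicate values are given as log-two fold change in thermal stability relative to solvent controls.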
TMEM138 (UniProt Q9NPI0): the log2 fold change was inactive: -0.094. Consider TMEM143 (UniProt Q96AN5), for which the log2 fold change was inactive: -0.02.

Regarding TIGAR (UniProt Q9NQ88), the log2 fold change is inactive: 0.005. Take TKT, A0A0B4J1R6: the log2 fold change is inactive: -0.222.

With TICAM1 (UniProt Q8IUC6), the log2 fold change was inactive: -0.076. In the case of TMEM184B (UniProt Q9Y519), the log2 fold change was inactive: -0.037. For the target TGFBR2 isoform 2 (UniProt P37173), the log2 fold change is inactive: 0.227. For TMEM159 isoform 2 (UniProt Q96B96) the value was inactive: -0.139; for TMEM101 (UniProt Q96IK0), inactive: -0.125; for TICRR (UniProt Q7Z2Z1), inactive: 0.217. TMEM134 (UniProt Q9H6X4): the log2 fold change is inactive: -0.038. As for TGFBR1 isoform 2 (UniProt P36897), the log2 fold change is inactive: -0.004.

For the target THBS1 (UniProt P07996), the log2 fold change was inactive: 0.095. With TMEM154 (UniProt Q6P9G4), the log2 fold change is inactive: -0.073. For TLNRD1 (UniProt Q9H1K6) the value was inactive: 0.123; for TMEM184C (UniProt Q9NVA4), inactive: -0.022; for TLE3 isoform 5 (UniProt Q04726), inactive: -0.069. Take TMCC1 (UniProt O94876): the log2 fold change was inactive: 0.236. Take TKTL1 (UniProt P51854): the log2 fold change was inactive: -0.008. Turning to TMEM120B (UniProt A0PK00), the log2 fold change was inactive: -0.123. For THOC2 (UniProt H0Y7U4), the log2 fold change is inactive: 0.043. As for TLE3 (UniProt H0YL70), the log2 fold change is inactive: -0.343. As for THAP5 (UniProt Q7Z6K1), the figure is inactive: -0.043.

(Values after the supplement of paper PMC10849652.)
